# Laboratory results: PubChem BioAssay AID504791 (Drosophila RNAi Screening Center, 2011)
# Assay: 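Genes whose knock-down strengthens or weakens small-RNA reporter silencing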 (primary screen)
# Cells: Drosophila S2-derived reporter cells
# Reagents: long dsRNA against Drosophila genes, about 150-250 ng dsRNA per well (siRNA assay); about 80-120 ng (miRNA assay)
# Duration: about 5 days (siRNA assay); about 4 days (miRNA assay)
# Challenge: copper sulfate induction of reporters: 25 µM (siRNA assay); 200 mM stated (miRNA assay), 1-2 days before reading
# Read-out: 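Per-well ratio of Renilla over firefly light, expressed relative to that plate's average ratio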
# Rule for the call: 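First-pass picks had plate-scaled ratios over 1.5 for the siRNA assay, over 1.6 for the miRNA assay, or under 0.6; two distinct dsRNAs had to score alike on retest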
# The screen tested about 23,000 reagents; shown is a random part of those with a known target gene and a result. Over the whole deposit, 199 (0.86%) are marked active. 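Plate-scaled ratios behind the calls are not deposited; printed light signals are raw; many rows marked increased or decreased are still called inactive.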 Unmarked entries are inactive. Names joined by + are all predicted targets of the reagent. Not given: the direction of the score.
gene,DRSC id,stable siRNA reporter change,miRNA reporter change,"stable assay Renilla, run 1 (luminescence)","stable assay firefly, run 1 (luminescence)"
niki (GeneID 42959),DRSC14285,,,5459,3.78e5
eEF5 (GeneID 37846),DRSC04681,,,5776,4.74e5
CG33120 (GeneID 326260),DRSC02073,,,9670,1.60e6
CG14671 (GeneID 40671),DRSC12257,,,6351,4.01e5
l(2)34Fd (GeneID 34839),DRSC01911,,,6782,1.52e6
CG30096 (GeneID 246454),DRSC21744,,,9322,4.32e5
Rcd5 (GeneID 38478),DRSC08180,,,12941,5.38e5
BEAF-32 (GeneID 36645),DRSC05927,,,8421,3.48e5
Gr22b (GeneID 117492),DRSC20911,,,5203,4.53e5
CG9759 (GeneID 41661),DRSC16558,,,6884,5.58e5
Top1 (GeneID 32458),DRSC20295,,,5180,4.23e5
CG9806 (GeneID 31994),DRSC18444,,,5471,4.46e5
m-cup (GeneID 42076),DRSC14430,,,6891,3.48e5
Sh3beta (GeneID 38820),DRSC11001,,,7586,3.88e5
Sh3beta (GeneID 38820),DRSC22053,,,8202,3.84e5
Grl62a (GeneID 7354373),DRSC07963,reporter ratio raised past the hit cutoff,,5902,1.53e5
lama (GeneID 38610),DRSC11361,,,7531,3.32e5
CG17982 (GeneID 31739),DRSC18143,,,6207,3.55e5
CG11929 (GeneID 33668),DRSC00339,,,8667,4.65e5
DCP2 (GeneID 39722),DRSC10597,reporter ratio lowered past the hit cutoff (active),reporter ratio lowered past the hit cutoff,5119,3.82e5
eIF3g2 (GeneID 42422),DRSC14275,,,6316,2.83e5
CG3880 (GeneID 37957),DRSC04428,,,6334,5.00e5
CG3880 (GeneID 37957),DRSC21404,,,8722,4.00e5
CG9861 (GeneID 37692),DRSC04576,,,13503,1.57e6
CG42674 (GeneID 40205),DRSC10066,reporter ratio raised past the hit cutoff,,3516,88881
CG42674 (GeneID 40205),DRSC10067,,,6011,4.63e5
CG42674 (GeneID 40205),DRSC10811,,,7219,4.37e5
CG12355 (GeneID 2768954),DRSC09381,,,4779,4.34e5
CG12355 (GeneID 2768954),DRSC09883,,,6451,4.85e5
CG17652 (GeneID 33353),DRSC00511,,,7018,3.89e5
CG34029 (GeneID 3885592),DRSC03909,,,6166,4.05e5
CG18747 (GeneID 59143),DRSC15384,,,7088,4.48e5
Obp49a (GeneID 36399),DRSC22562,,,5288,4.28e5
Elp4 (GeneID 33775),DRSC02999,,,5219,2.96e5
Tsp66A + CG42661 + CG42660,DRSC10233,,,7308,4.62e5
CG14332 (GeneID 42098),DRSC14811,,,6379,3.27e5
CG4849 (GeneID 43358),DRSC15662,,,9619,3.73e5
CG10513 (GeneID 43051),DRSC14248,,,7584,5.15e5
MED28 (GeneID 43079),DRSC15721,,,5838,3.74e5
CG3556 (GeneID 31380),DRSC18309,,,7710,5.45e5
CR9337 (GeneID 3885658),DRSC03212,,,2.06e5,2.60e5
Pnn (GeneID 41185),DRSC16415,,,6866,3.45e5
c11.1 (GeneID 53436),DRSC18749,,,5192,3.88e5
ap (GeneID 35509),DRSC04917,,,20718,1.95e6
CG18823 (GeneID 59184),DRSC18168,,,6232,3.92e5
CG15651 (GeneID 37375),DRSC04242,,,6787,2.76e5
raw (GeneID 44851),DRSC03599,,,8994,5.34e5
raw (GeneID 44851),DRSC03600,,,6926,3.98e5
Nrx-IV (GeneID 39387),DRSC11238,,,8913,4.55e5
cv-c (GeneID 41749),DRSC14969,,,7631,3.94e5
cv-c (GeneID 41749),DRSC14970,,,6735,4.53e5
cv-c (GeneID 41749),DRSC14971,,,6512,3.36e5
cv-c (GeneID 41749),DRSC14972,,,6395,4.58e5
cv-c (GeneID 41749),DRSC14973,,,5240,3.41e5
cv-c (GeneID 41749),DRSC16428,,,8867,4.29e5
cv-c (GeneID 41749),DRSC23199,,,2528,2.85e5
CG14125 (GeneID 39359),DRSC10129,,,6583,3.53e5
CG44774 (GeneID 31424),DRSC18342,,,6547,3.15e5
Coq6 (GeneID 33777),DRSC03040,,,1.29e5,1.55e5
Jhbp1 (GeneID 40613),DRSC12167,,,7706,4.16e5
CG5938 (GeneID 43290),DRSC15923,,,7119,4.52e5
CG10505 (GeneID 37428),DRSC04075,,,5668,3.29e5
CG8476 (GeneID 41624),DRSC16426,,,7290,3.68e5
CG9400 (GeneID 32385),DRSC20182,,,8707,4.10e5
CG10311 (GeneID 41984),DRSC14228,,,7443,2.98e5
CG5984 (GeneID 43281),DRSC15930,,,6266,3.44e5
CG15443 (GeneID 33656),DRSC00455,,,9725,6.24e5
CG6766 (GeneID 34619),DRSC02991,,,4259,3.54e5
CG15406 (GeneID 33542),DRSC00420,,,7083,4.28e5
CG17999 (GeneID 37357),DRSC04300,,,1.31e5,4.43e5
CG42390 (GeneID 42600),DRSC15866,,,6818,1.90e5
CG42390 (GeneID 42600),DRSC23064,,,3560,3.12e5
CG42390 (GeneID 42600),DRSC23065,,,5283,3.72e5
RpS14a (GeneID 47218),DRSC18710,,,5755,4.08e5
vilya (GeneID 31264),DRSC18588,,,6230,3.52e5
ms(2)34Fe (GeneID 34833),DRSC01905,,,6811,3.41e5
MtnA (GeneID 41202),DRSC21588,reporter ratio lowered past the hit cutoff,,8977,6.26e5
Pgant4 (GeneID 261610),DRSC00717,,,8390,4.37e5
aft (GeneID 37034),DRSC07576,,,9893,3.27e5
Sidpn (GeneID 35168),DRSC02056,,,7338,1.50e6
Cad87A (GeneID 41441),DRSC16161,,,9030,5.75e5
MICU1 (GeneID 33999),DRSC02752,,,8857,3.03e5
CG4572 (GeneID 42360),DRSC15603,,,9905,3.42e5
S6k (GeneID 38654),DRSC11276,,,5459,3.92e5
PpD6 (GeneID 49780),DRSC00774,,,7854,5.73e5
PpD6 (GeneID 49780),DRSC23331,,,4556,3.08e5
CG30440 (GeneID 35496),DRSC04775,,,7166,6.84e5
CG30440 (GeneID 35496),DRSC04845,,,5543,4.12e5
CG30440 (GeneID 35496),DRSC04855,,reporter ratio lowered past the hit cutoff,6270,3.69e5
Vtld + CG42529,DRSC10102,,,6876,3.58e5
CG15023 (GeneID 38550),DRSC08477,,,7054,5.18e5
CG15023 (GeneID 38550),DRSC25462,,reporter ratio raised past the hit cutoff,,
CG2681 (GeneID 31258),DRSC18464,,,6348,3.07e5
CngB (GeneID 37479),DRSC04297,,,7254,1.40e6
CG2218 (GeneID 43611),DRSC15428,,,7219,3.85e5
inv (GeneID 36239),DRSC07633,,,5845,4.13e5
CG34238 (GeneID 5740238),DRSC09040,,,4615,4.06e5
CG32536 + CG32537,DRSC20074,,,4972,4.24e5
ewg (GeneID 30975),DRSC18773,,,4272,4.28e5
Cnep1r1 (GeneID 3355167),DRSC20620,,,5947,4.40e5
CG31871 (GeneID 34463),DRSC02567,,,7655,5.15e5
CG31871 (GeneID 34463),DRSC02571,,,6816,4.26e5
Ttc7 (GeneID 48387),DRSC04836,,,2.18e5,1.22e6
tous (GeneID 37582),DRSC04464,,,18712,7.47e5
CG13711 (GeneID 38576),DRSC08320,,,6635,4.49e5
thetaTry (GeneID 36218),DRSC07705,,,6444,3.47e5
